The target in one data set is Pax6 GST-PD (UniProt P63015). Description: EMSA. The conditions noted are these: EMSA: 0.5-1 ng 5'-end-labelled probe, 2 ug poly(dI-dC), room temperature 10 min, 5% PAGE in 0.5x TBE, competitor 50 ng cold P6CON (~50:1), binding buffer, recombinant protein, protein details: GST, label: 5'-end label (radioactive). (Mobility shift assays separate free from complexed probe on a gel.)

The chains behind the UniProt entries cited, without tags or fusion partners. Residues count along the entry.
UniProt P63015, 4-130: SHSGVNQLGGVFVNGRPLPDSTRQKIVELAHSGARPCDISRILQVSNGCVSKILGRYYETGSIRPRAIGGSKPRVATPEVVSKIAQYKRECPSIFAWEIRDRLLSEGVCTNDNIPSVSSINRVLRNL
UniProt P63015, 4-269: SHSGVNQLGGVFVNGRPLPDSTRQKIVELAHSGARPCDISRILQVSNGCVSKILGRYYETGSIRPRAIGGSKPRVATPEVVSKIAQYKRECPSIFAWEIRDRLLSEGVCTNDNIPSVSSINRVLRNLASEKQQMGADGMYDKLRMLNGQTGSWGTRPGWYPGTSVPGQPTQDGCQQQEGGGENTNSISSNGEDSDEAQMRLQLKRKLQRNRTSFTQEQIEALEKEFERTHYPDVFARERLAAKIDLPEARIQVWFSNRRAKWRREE

The next data set has as its target Pax6 GST-PD/HD (UniProt P63015). Nature of the data set: EMSA. The conditions noted are these: EMSA: 0.5-1 ng 5'-end-labelled probe, 2 ug poly(dI-dC), room temperature 10 min, 5% PAGE in 0.5x TBE, competitor 50 ng cold P6CON (~50:1), binding buffer, recombinant protein, protein details: GST, label: 5'-end label (radioactive).
The mark [1] stands for this setting: lower than P6CON, PD lower than PD/HD.
The mark [2] stands for this setting: lower than P6CON, higher than PD.

The exact form of at least one protein or probe is not confirmed. A negative result means that nothing was seen under these conditions. At least one verdict was read from the data and is not stated in words by the source. A weaker result is weaker than the reference pair of the same experiment.

Regarding “ACTGCTGACCTAACTCTTGAGTTCTCCGGGAT (double strand) [Tgfb2 site 10]”, the binding result with Pax6 GST-PD and with Pax6 GST-PD/HD was “no binding” each time.
In the case of “AGCCCTGAAGACATGCCTTCCAATCTGAGAC (double strand) [Tgfb2 site 9]”, the binding result in the data set with Pax6 GST-PD and with Pax6 GST-PD/HD was “no binding” in each case.
Turning to “ATCCGTCTCATCATACTTGAGTTAATGAGGCA (double strand) [Mab21l2 site 5]”, the binding result with Pax6 GST-PD (setting [1]) and in the data set with Pax6 GST-PD/HD (setting [2]) was “binds more weakly” throughout.
As to “CCCCAAAAGGAAAGTGAAGGATGTAATTAATGCC (double strand) [Mab21l2 site 1]”, the binding result with Pax6 GST-PD (setting [1]) and in the data set with Pax6 GST-PD/HD (setting [2]) was “binds more weakly” throughout.
Turning to “CCCGGAGAGCAGCGAAGTACAGCTCAGGCCG (double strand) [Mab21l2 site 2]”, the binding result in the data set with Pax6 GST-PD and with Pax6 GST-PD/HD was “no binding” each time.
On to “GATAGATGGCTTTGATGCGTAAAACTTGAGAG (double strand) [Tgfb2 site 6]”, for which the binding result in the data set with Pax6 GST-PD (lower than P6CON) and with Pax6 GST-PD/HD (lower than P6CON) was “binds more weakly” in each case.
Regarding “GCTCCTTGATGGTGTATTAAAACGAAGTGGCAGCTCCT (double strand) [Mab21l2 site 4]”, the binding result with Pax6 GST-PD and in the data set with Pax6 GST-PD/HD was “no binding” each time.
As to “TCCGGGTTTTTCCTCTCCTCTGGGTTGCGTT (double strand) [Mab21l2 site 3]”, the binding result with Pax6 GST-PD and in the data set with Pax6 GST-PD/HD was “no binding” in each case.
With “TCCTGACCACAACTCTCTAGTGACTACTCCA (double strand) [Tgfb2 site 7]”, the binding result in the data set with Pax6 GST-PD and with Pax6 GST-PD/HD was “no binding” in each case.
As for “TGTCACACAGTATCATAACTTGACATTTTCTACTTCAACTTGCTCA (double strand) [Tgfb2 site 11/12]”, the binding result with Pax6 GST-PD (lower than P6CON) and with Pax6 GST-PD/HD (lower than P6CON) was “binds more weakly” throughout.
In the case of “TTAGCCACATCATTCACTCATCACACAAACTC (double strand) [Tgfb2 site 8]”, the binding result with Pax6 GST-PD (lower than P6CON) and in the data set with Pax6 GST-PD/HD (lower than P6CON) was “binds more weakly” each time.
